The campaign covered roughly 310,000 compounds. About 17,000 (5.5%) were called active. Inconclusive results, whose numbers are uncertain, are shown with a selection of clear calls. The call rests on the fitted dose curve; in most records, active means well fitted inhibition curve with a large enough effect; inconclusive means small, poorly fitted or top-dose-only effect, or effect the other way; inactive means no such curve, though single readings can be large or run the other way. Potencies of inconclusive entries are doubtful fits and often do not repeat.
biological target: Nuclear receptor ROR-gamma (Mus musculus) (UniProt P51450); assay: qHTS for inhibitors of ROR gamma transcriptional activity; conditions: Drosophila S2 Gal4-RORgamma UAS-luciferase reporter, 20 h; activity change, negative = inhibition: at 53.6 µM (top of the series); further: nearly all actives have a fitted effect of over 60% in size
In short: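 Using a luciferase readout, inhibitors were identified by reduced reporter activity in Drosophila cells coexpressing a copper-inducible Gal4–ROR gamma fusion and UAS-driven Photinus luciferase, incubated 20 hr after 700 uM copper sulfate.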
On the % scale 0 is the no-effect control and ±100 the full control effect; potency means the concentration at half of the fitted maximal effect.

Protein sequences, listed by entry. Tags and fused reporters are not part of them. Lines headed by an entry give the natural chain unless they say otherwise; changes in a name come on top.
UniProt P51450: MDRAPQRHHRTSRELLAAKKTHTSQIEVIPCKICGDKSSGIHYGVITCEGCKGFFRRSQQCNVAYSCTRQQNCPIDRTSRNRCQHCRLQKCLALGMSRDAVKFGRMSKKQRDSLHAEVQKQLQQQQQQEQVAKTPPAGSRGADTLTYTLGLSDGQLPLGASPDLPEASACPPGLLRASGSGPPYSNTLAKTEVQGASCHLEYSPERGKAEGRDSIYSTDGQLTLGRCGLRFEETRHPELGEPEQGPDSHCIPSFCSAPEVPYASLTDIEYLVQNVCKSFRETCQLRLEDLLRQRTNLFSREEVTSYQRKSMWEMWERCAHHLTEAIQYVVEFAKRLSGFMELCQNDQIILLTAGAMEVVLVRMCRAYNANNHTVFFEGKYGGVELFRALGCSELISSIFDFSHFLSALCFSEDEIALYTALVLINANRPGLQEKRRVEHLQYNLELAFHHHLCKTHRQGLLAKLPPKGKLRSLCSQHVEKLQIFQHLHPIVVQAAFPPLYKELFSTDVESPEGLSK

SMILES | Potency | activity change, negative = inhibition
CC(C)(C)c1cc(Br)c(O)c(N=Nc2ccc(S(=O)(=O)N3CCOCC3)cc2)c1 | active: 6.31 µM | 
CS(=O)(=O)NCCSCc1c(F)cccc1Cl | inconclusive: 0.251 µM [activator, single point] | 
Cc1cc([N+](=O)[O-])ccc1NC(=O)CSc1nncn1-c1cccnc1 |  | inactive: -0.051%
CCCCN(C(=O)Cc1cccs1)c1nnc(-c2cccnc2)s1 | inconclusive: 7.94 µM [activator, partial curve] | 
COc1cc(Cl)cc(/C=N/NC(N)=O)c1O | inconclusive: 28.2 µM [inhibitor, single point] | 
Cc1cnc(NC(=O)CSc2ncc(-c3ccccc3)n2Cc2ccco2)s1 | active: 11.2 µM | 
COc1ccc(-c2cc(C3CCN(c4cc(Cl)nc(N)n4)CC3)[nH]n2)cc1 | inconclusive: 35.5 µM [activator, single point] | 
Cc1ccc(/C=N/NC(=O)Cc2cccs2)o1 | inconclusive: 14.1 µM [inhibitor, single point] | 
CCC(C)[C@H]1CNC(=S)N1CCc1cccc2ccccc12 (stereo not given in full) | active: 2.51 µM | 
Cc1cc(C(=O)c2ccccc2)nc2ccccc12 |  | inactive: 26.7%
CCc1cc2c(=O)n(-c3ccc(Br)cc3)cnc2s1 | inconclusive: 3.98 µM [activator, full curve] | 
O=C(NCc1ccco1)C(c1ccccc1)N(C(=O)Cc1cccs1)c1ccccc1 (stereo not given) | inconclusive: 28.2 µM [inhibitor, single point] | 
Cc1cccc(C)c1NC(=O)CCCSc1nnc(-c2ccc(Cl)cc2)n1-c1ccccc1 | inconclusive: 22.4 µM [activator, single point] | 
CC(O)(CS(=O)(=O)Cc1ccccc1)C(=O)Nc1ccc(C(F)(F)F)cc1 (stereo not given) | inconclusive: 35.5 µM [activator, single point] | 
CC(C)CCNC(=O)Cn1c2c(c(-c3ccccc3Cl)cc1=O)CCC2 |  | inactive: 31.7%
COc1ccccc1CCNC(=O)C(=O)NCC1OCCN1S(=O)(=O)c1ccc(OC)c(OC)c1 (stereo not given) |  | inactive: -3.09%
CCOC(=O)C1=C(SCC)c2cc3c(n2C1=O)CCCC3 | inconclusive: 0.562 µM [activator, full curve, poor fit] | 
COc1ccc(-c2cc(C(=O)N3CCCCCC3)c3ccccc3n2)c(OC)c1 |  | inactive: -1.27%
Cc1ccc(NC(=S)N/N=C/c2cccn2Cc2ccccc2F)cc1 | active: 0.355 µM | 
COc1ccc(NC(=O)n2ncc3cc(Cl)ccc32)cc1OC |  | inactive: -16%
CCOc1cc(NC(=S)NCC2CCCO2)c(OCC)cc1NC(=O)C1CC1 (stereo not given) | active: 11.2 µM | 
CN(C)c1ncc2nc(-c3ccccc3)c(=O)n(CCC#N)c2n1 |  | inactive: -4.85%
CN1C(=O)C(O)(CC(=O)c2cccc(-n3cccc3)c2)c2ccccc21 (stereo not given) | inconclusive: 0.891 µM [inhibitor, single point] | 
COc1ccc(NC(=O)c2cc(-c3cccnc3)nc3ccc(C)cc23)cc1OC | inconclusive: 35.5 µM [inhibitor, single point] | 
CC(/C=C/c1ccccc1)=N\Nc1nc(-c2ccccc2)cs1 | inconclusive: 12.6 µM [inhibitor, partial curve, poor fit] | 

SMILES | Potency | activity change, negative = inhibition
Cc1ccccc1OCC(=O)Nc1ccccc1N1CCCCC1 | inconclusive: 35.5 µM [activator, single point] | 
Cc1ccc2cc(C)c(SCC(=O)NCc3ccco3)nc2c1 | inconclusive: 14.1 µM [inhibitor, single point] | 
Cc1ccccc1C(=O)N/N=C1/SCC(=O)N1Cc1ccccc1 |  | inactive: -21.3%
O=S(=O)(NCC1CCN(c2ccc(S(=O)(=O)N3CCOCC3)cc2)CC1)c1ccccc1 | inconclusive: 0.0056 µM [activator, full curve] | 
CC(C)NCC(=O)C12CC3CC(CC(C3)C1)C2 |  | inactive: 7.96%
COC(=O)c1ccc(COC(=O)CNC(=O)c2ccc(-c3ccccc3)cc2)cc1 | inconclusive: 10 µM [activator, partial curve] | 
COc1ccc(/C=C/C(=O)NCCCc2ccccc2)cc1 | inconclusive: 22.4 µM [activator, single point] | 
CCCOC(=O)c1ccc(NC(=O)c2c(Cl)ccc(Cl)c2OC)cc1 | inconclusive: 35.5 µM [activator, single point] | 
CN(CCCNC(=O)c1ccccc1F)CCCNC(=O)c1ccccc1F | inconclusive: 6.31 µM [inhibitor, single point] | 
Cn1c(=O)c2c(-c3ccccc3F)c3c(nc2n(C)c1=O)-c1ccccc1C3O (stereo not given) | inconclusive: 35.5 µM [activator, single point] | 
CCOC(=O)C1CCCN(c2ncnc3c2[nH]c2cccc(OC)c23)C1 (stereo not given) | inconclusive: 35.5 µM [inhibitor, single point] | 
CC(C)c1ccc2c(c1)c(SC(C)(C)C)c(CC(C)(C)C(=O)O)n2Cc1ccc(Cl)cc1 | inconclusive: 14.1 µM [activator, single point] | 
Cc1nn(-c2ccccc2)c(Cl)c1/C=N/NC(=O)c1ccccc1NS(=O)(=O)c1cccs1 | inconclusive: 15.8 µM [activator, single point] | 
CC(=O)Oc1ccc2nc(-c3ccco3)oc(=O)c2c1 | inconclusive: 7.08 µM [inhibitor, partial curve] | 
CCOC(=O)C1CCCN(C(=S)Nc2ccc(Nc3ccccc3)cc2)C1 (stereo not given) | inconclusive: 20 µM [inhibitor, single point] | 
Cc1cc(C)cc(NC(=S)N2CCC(NC(=O)c3ccccc3C)CC2)c1 | inconclusive: 10 µM [inhibitor, partial curve] | 
Clc1ccc(CSc2ncn(-c3ccccc3)n2)cc1 | inconclusive: 3.98 µM [activator, full curve, poor fit] | 
CC(C)COc1ccc(-c2nn(-c3ccccc3)cc2CO)cc1 |  | inactive: -12%
CCCCOc1ccc(S(=O)(=O)Nc2ccc(NC(C)=O)cc2)cc1 | inconclusive: 35.5 µM [activator, single point] | 
Cn1ccnc1SCC(=O)Nc1ccc(Br)cc1C(F)(F)F |  | inactive: -35.4%
Cc1cccc(C(=O)N2CCc3cc(-c4csc(NC(=O)CN5CCCC5)n4)ccc32)c1 | inconclusive: 28.2 µM [inhibitor, single point] | 
COc1ccc(NC(=O)c2ccc(COc3ccc(C)cc3)o2)cc1 |  | inactive: 7.19%
Cc1cccc(NC(=O)CSc2nnc(-c3cnccn3)n2Cc2ccco2)c1 |  | inactive: 15.3%
Cc1ccc2nc(SCC(=O)N3CCCC3)[nH]c2c1 |  | inactive: 0%
CCc1nnc(NC(=O)c2cccc(S(=O)(=O)N3CCN(c4ccccc4)CC3)c2)s1 | active: 12.6 µM | 

SMILES | Potency | activity change, negative = inhibition
Cc1cc(C)n2nc(NCc3cccc(Br)c3)nc2n1 | inconclusive: 35.5 µM [activator, single point] | 
Cc1nn(Cc2ccccc2)c(C)c1C(=O)NCCN1C(=O)S/C(=C\c2ccccc2)C1=O | inconclusive: 15.8 µM [activator, single point] | 
CCOc1ccc(C(=O)Nc2cccc([N+](=O)[O-])c2)cc1Br | inconclusive: 35.5 µM [inhibitor, single point] | 
O=C(Oc1cccccc1=O)c1ccccc1 | active: 10 µM | 
Cc1cc(C)c(C(=O)Nc2ccc(Br)c(C(F)(F)F)c2)c(C)c1 | inconclusive: 35.5 µM [inhibitor, single point] | 
CCCC(=O)NCCc1nc2ccccc2n1CCC |  | inactive: 6.19%
CCOC(=O)c1cnc(-n2nc(C)cc2C)nc1NC | active: 1.58 µM | 
CCCCCCC(C)NC(=S)Nc1cc(S(=O)(=O)N(C)C)ccc1C (stereo not given) | active: 12.6 µM | 
CCc1ccc(C(=O)NC(=S)Nc2ccccc2N2CCOCC2)cc1 | active: 3.55 µM | 
COc1ccc(Cn2c3nc4ccccc4nc3c3c(=O)n(Cc4ccco4)cnc32)cc1 | active: 10 µM | 
COc1cccc(NC(=S)NNC(=O)CCn2cc([N+](=O)[O-])cn2)c1 | inconclusive: 2.51 µM [inhibitor, full curve] | 
CCn1c(-c2nn(C)c(C)c2Cl)n[nH]c1=S | inconclusive: 35.5 µM [inhibitor, single point] | 
CCOc1cccc(-c2c(C(=O)N/N=C/c3c(F)cccc3Cl)nnn2-c2nonc2N)c1 |  | inactive: -2.29%
Fc1cccc(NC(=S)NCCc2ccccc2)c1 | active: 3.16 µM | 
O=Cc1sc(Nc2ccccc2)nc1Cl |  | inactive: 33.2%
CCOC(=O)C1=C(C)NC2=C(C(=O)OC2)C1c1ccccc1 (stereo not given) | inconclusive: 35.5 µM [activator, single point] | 
Cc1cccc(/C=N\NC(=O)c2ccc(Cl)cc2)c1O | active: 6.31 µM | 
C[C@H]1CCC[C@]2(C)C[C@H]3OC(=O)C(CN4CCCCCC4)[C@H]3C=C12 (stereo not given in full) | inconclusive: 22.4 µM [inhibitor, single point] | 
NC(=O)C1CCN(c2ncnc3c(-c4ccccc4)nsc23)CC1 | inconclusive: 0.112 µM [inhibitor, full curve] | 
Cc1ccnc(Nc2nc3ccccc3o2)n1 | active: 4.47 µM | 
O=C(COc1ccc(Br)cc1)N1CCN(S(=O)(=O)/C=C/c2ccccc2)CC1 | inconclusive: 17.8 µM [activator, single point] | 
O=C1CC(c2c[nH]c3ccccc23)C(=O)N1c1ccccc1 (stereo not given) | inconclusive: 22.4 µM [activator, single point] | 
CCC(C)c1ccc(-n2c(=O)c3ccccc3n3c(=S)[nH]nc23)cc1 (stereo not given) | inconclusive: 5.01 µM [inhibitor, partial curve] | 
Cc1[nH]c(=S)n(CC2CCCO2)c1C (stereo not given) | inconclusive: 0.631 µM [inhibitor, full curve] | 
COCCN(C(=O)c1cc(OC)c(OC)c(OC)c1)c1c(N)n(Cc2ccccc2)c(=O)[nH]c1=O |  | inactive: 10.5%

Single entries from the list:
Entry of Cc1cc(C)c(C(=O)Nc2ccc(Br)c(C(F)(F)F)c2)c(C)c1 under Potency: inconclusive: 35.5 µM [inhibitor, single point]
Entry of O=C(NCc1ccco1)C(c1ccccc1)N(C(=O)Cc1cccs1)c1ccccc1 (stereo not given) under Potency: inconclusive: 28.2 µM [inhibitor, single point]
Entry of CCOc1ccc(C(=O)Nc2cccc([N+](=O)[O-])c2)cc1Br under Potency: inconclusive: 35.5 µM [inhibitor, single point]
Entry of CC(=O)Oc1ccc2nc(-c3ccco3)oc(=O)c2c1 under Potency: inconclusive: 7.08 µM [inhibitor, partial curve]

Source: PubChem BioAssay AID2551 (National Center for Advancing Translational Sciences (NCATS), 2010)
